Results on 3 molecules are retold here after US20230338553A1.

Chains of the proteins cited; added tags and fusions are not shown. Residues count along the entry.
UniProt P02701, residues 25-152: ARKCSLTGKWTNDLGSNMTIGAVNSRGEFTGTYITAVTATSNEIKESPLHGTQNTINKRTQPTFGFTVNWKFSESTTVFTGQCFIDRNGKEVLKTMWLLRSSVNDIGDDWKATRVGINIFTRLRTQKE

These are yes or no findings as the source states them, for the method shown. Some binding calls cover weakened binding; strength is not graded here.

Assay [1] deals with avidin (UniProt P02701). The assay is described as follows: non-reducing SDS-PAGE and Western blot of scFv/avidin mixtures. (A western blot detects proteins with antibodies after separation by electrophoresis.)
Assay [2] concerns the target avidin (UniProt P02701). The assay is described as follows: non-reducing SDS-PAGE and Western blot of scFv/avidin mixtures (FIG. 11 legend).
The target in assay [3] is avidin (UniProt P02701). Nature of the assay: non-reducing SDS-PAGE and Western blot of scFv/avidin mixtures (FIG. 12 legend).
Assay [4] addresses T1, Prostate Stem Cell Antigen (PSCA) (human) (UniProt O43653).
T1 sequence (looked up): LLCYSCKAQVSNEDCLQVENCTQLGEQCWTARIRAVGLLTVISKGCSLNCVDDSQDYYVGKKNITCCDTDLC
Nature of the assay: flow cytometry titration on 293T^PSCA cells, KD calculation.

B1: scFv(MR1.1)-P-BAP (scFv)
scFv: DAAQPARRARRTKLGTELGSHMQVKLQQSGGGLVKPGASLKLSCVTSGFTFRKFGMSWVRQTSDKRLEWVASISTGGYNTYYSDNVKGRFTISRENAKNTLYLQMSSLKSEDTALYYCTRGYSPYSYAMDYWGQGTTVTVSSSGGGSGGGGSGGGGSDIELTQSPASLSVATGEKATIRCMTSTDIDDDMNWYQQKPGEPPKFLISEGNTLRPGVPSRFSSSGTGTDFVFTIENTLSEDVGDYYCLQSWNVPLTFGDGTKLEITKLSSKLKVTVNGTAYDVDVDVDKSHENPMGTILFGGGTGGAPAPAAGGAGAGKAGEGEIPAPLAGTVSKILVKEGDTVKAGQTVLVLEAMKMETEINAPTDGKVEKVLVKERDAVQGGQGLIKIGDLELIEGSSGPEQKLISEEDLNSAVDHHHHHH
modifications: mono-biotinylated at the C-terminal P-BAP (PSTCD biotin acceptor domain)
Consider B1, for which the binding result in assay [1] and in assay [2] was “binds” throughout.

B2: scFv(MR1.1)-BAP (scFv)
scFv: DAAQPARRARRTKLGTELGSHMQVKLQQSGGGLVKPGASLKLSCVTSGFTFRKFGMSWVRQTSDKRLEWVASISTGGYNTYYSDNVKGRFTISRENAKNTLYLQMSSLKSEDTALYYCTRGYSPYSYAMDYWGQGTTVTVSSSGGGSGGGGSGGGGSDIELTQSPASLSVATGEKATIRCMTSTDIDDDMNWYQQKPGEPPKFLISEGNTLRPGVPSRFSSSGTGTDFVFTIENTLSEDVGDYYCLQSWNVPLTFGDGTKLEITMSGLNDIFEAQKIEWHEGAPSSGGESSGSGPEQKLISEEDLNSAVDHHHHHH
modifications: mono-biotinylated at the BAP (Bio-Tag derived)
As for B2, the binding entry in assay [3] and in assay [1] was “binds” each time.

B3: scFv(h-AM1)-BAP (scFv)
scFv: DAAQPARRARRTKLGTELGSEVQLLESGGGLVQPGGSLRLSCVASGFTFSSYTMSWVRQAPGKGLEWVSYIHNGGGHTYYADSVKGRFTISRDNSKNTLYLQMNSLRAEDTAVYYCTRRMYYGNSHWYFDVWGAGTRVTITSAKTTPPSVYGGGGSGGGGSGGGGSTNSDIQMTQSPSSLSASVGDRVTITCRTSQSISNYLNWYQQKPGKAPKLLIYYTLKLNSGVPSRFSGSGSGTDFTLTISSLQPEDFATYYCQQSKTLPWTFGGGTKLEIKRADAAPTVSGPEQKLISEEDLNSAVDMSGLNDIFEAQKIEWHEGAPSSHHHHHH
modifications: mono-biotinylated at the C-terminal BAP (Bio-Tag)
For B3, the binding result in assay [3], in assay [1] and in assay [4] was “binds” in each case.
